From PMC6667501
These are yes or no findings as the source states them, for the method shown. In cells and extracts the contact can be indirect. Where a sequence is shown, tags or fusion partners need not be part of it.

Target: T1, HA-PIAS1-CTD (C-terminal domain, 345-650 aa of PIAS1) (UniProt O75925)
T1 sequence: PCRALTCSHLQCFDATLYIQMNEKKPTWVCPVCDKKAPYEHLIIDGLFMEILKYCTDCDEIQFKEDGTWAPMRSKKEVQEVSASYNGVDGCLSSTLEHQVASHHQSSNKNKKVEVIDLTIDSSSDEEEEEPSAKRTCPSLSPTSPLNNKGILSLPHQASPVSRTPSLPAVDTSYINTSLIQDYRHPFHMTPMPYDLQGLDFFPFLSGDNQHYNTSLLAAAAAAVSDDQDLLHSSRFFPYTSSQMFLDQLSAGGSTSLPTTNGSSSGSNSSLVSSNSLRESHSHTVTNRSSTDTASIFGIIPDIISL
Assay: co-IP; HeLa co-transfected with HA-PIAS1 (or HA-PIAS1-NTD/-CTD) and FLAG-tagged viral genes for 30 h; lysis buffer 50 mM Tris-HCl, 0.1% Triton-X-100, 150 mM NaCl, pH 7.8; precipitated with α-HA MAb and protein G agarose, blotted with α-FLAG

With “FLAG-tagged PRRSV nucleocapsid (N) protein, full-length wild type” the binding was “no binding”.
